B1: il10ra_site1_sap_12_mot_HHH_b2_06846_000000142_0001_38_52_H_._HHH_b1_01105_af2_0001_0000200004_0000001_0_0001 (protein)
chain: SSSSSEKEELARAIERLIEQAQEWNDETLLKFMLLALEMLVEEIGDPELRRRLEELEERLSSSSS
B2: il10ra_site1_normal_mot_HHH_b1_05937_af2_000000262_0001_20_37_H_._HHH_b1_08754_af2_0001_0000100001_0000001_0 (protein)
chain: SSSSDDEEERVLRLIIEANRLIFKGNPEEAQEVIEEAEELVKELGDEVLRRALEQVQRVLESSSS
B3: il10ra_site1_sap_15_mot_HHH_b2_08265_af2_000000206_0001_22_38_H_._HHH_b2_02861_af2_0001_0000700035_0000001_0_0001 (protein)
chain: SSSSDEAYEIARKAIEEALELLRNGNPEEAREIVEEAIELIRELGNEAAVFNLEHLLRVINSSSS
B4: il10ra_site1_sap_21_mot_HHH_b1_02420_000000033_0001_20_36_H_._HHH_b1_02091_0001_0000100003_0000001_0_0001 (protein)
chain: SSSSDTLEWSVEFALRVAEELYERGNEERAKELLKALRENVERAGNEELRRKVEELLEELSSSSS
B5: il10ra_site1_sap_18_mot_HHH_b2_01736_af2_000000067_0001_1_17_H_._HHH_b2_03657_0001_0000400016_0000001_0_0001 (protein)
chain: SSEDQELIENAIRFWERMYRQGAVSPEEAARALRVLIEAAEKDGDEELAEKARKLLEEIEEEKSS
B6: il10ra_site1_sap_22_mot_HHH_b1_03859_af2_000000004_0001_44_57_H_._HHH_b1_05263_0001_0000100013_0000002_0_0001_af2pred_0001 (protein)
chain: SSSSDEELILRALLRQLELALRHGDEELFERLLRAAKLAAELRNDEEIRKLLEELEKEVNSSSSS
B7: il10ra_site1_normal_mot_HHH_b1_04771_000000013_0001_40_56_H_._HHH_b2_03230_0001_0000300024_0000001_0 (protein)
chain: SSSSSDVEEAAELSLEAFRLALRGDPEQAREVLEEALEIAEEGGDERLARVIEDLLELLSSSSSS
B8: il10ra_site1_normal_mot_HHH_b1_00999_000000080_0001_41_55_H_._HHH_b2_01363_af2_0001_0000100001_0000002_0 (protein)
chain: SSSSSSEEVEEEVERLLEEAKEIEDPEEAMRVLLEALQIALRNNNKELLQLVWRIIKELGSSSSS
B9: il10ra_site1_normal_mot_HHH_b1_04771_000000013_0001_40_56_H_._HHH_b1_02827_0001_0000100001_0000002_0 (protein)
chain: SSSSDEELQQALELSLEAFRLALRGNPEEARKVLEEAEELVREAGDPQLLETIEELLKALSSSSS
B10: il10ra_site1_sap_24_mot_HHH_b1_06912_af2_000000235_0001_1_15_H_._HHH_b1_04651_0001_0000100003_0000001_0_0001 (protein)
chain: SSSSDQELYRKVEELIEEAIELQRRGNPEEARRLLEELLEELEELNNPNMLYNVRHLLKAISSSS
B11: il10ra_site1_sap_19_mot_HHH_b1_07527_000000076_0001_1_15_H_._HHH_b1_00461_af2_0001_0000100005_0000001_0_0001_af2pred_dldesign_0_af2pred (protein)
chain: SPEERIAAGIRAAAAQAGVPRVEVEFKDGVVRVTLTGDPEACAAALTKAEAIAKLNNLKLEVELR
B12: il10ra_site1_normal_mot_HHH_b2_03220_af2_000000223_0001_23_40_H_._HHH_b1_01682_af2_0001_0000100007_0000001_0 (protein)
chain: SSSSNEEVWELIREALELLADGDKEEAEKVAEEALELAREAGSEALEFAIRLLEEAIRLRSSSSS
B13: il10ra_site1_normal_mot_HHH_b2_08144_af2_000000046_0001_38_52_H_._HHH_b2_06212_af2_0001_0000100004_0000001_0 (protein)
chain: SSSSSEELEEAFKALRRLAELAHEGNPEEFKELAEKAQEIVEELGNELLEIQLEFLKRLVLSSSS
B14: il10ra_site1_sap_17_mot_ems_4hM_4652_af2_000000118_0001_50_63_H_._HHH_b1_00111_0001_0000100006_0000002_0_0001 (protein)
chain: SSSSDEEEEKLARLMEKMVEAFIRNDKEEVEKLTEEAEELAKELGNEQLLKFLENLRRALSSSSS
B15: il10ra_site1_normal_mot_ems_3hM_235_000000244_0001_46_64_H_._HHH_b1_07791_af2_0001_0000400011_0000001_0 (protein)
chain: SSSSTALERVWELARRILELVRQGDHERAEELLEEVEELLEETGSPIIESVLRALKILLGSSSSS
B16: il10ra_site1_sap_15_mot_HHH_b1_07286_af2_000000054_0001_1_19_H_._HHH_b1_00076_0001_0000300011_0000001_0_0001 (protein)
chain: SSSSSSEEEEVEELLEEAKRIPDEREVSKLLLRATRLAIQLQDPELLQLVWRVVKELAERSSSSS
B17: il10ra_site1_normal_mot_HHH_b1_03353_af2_000000170_0001_1_18_H_._HHH_b2_01741_0001_0000300013_0000001_0_af2pred_dldesign_0_af2pred (protein)
chain: SSSSDPRAEVRRLLEEALALAKAGKNEEATALLRRAAELAGELEDPELEALVIETARKILESSSS
B18: il10ra_site1_sap_21_mot_HHH_b1_05056_000000217_0001_1_20_H_._HHH_b1_00422_0001_0000300026_0000002_0_0001 (protein)
chain: SSSSDEEERYARMSLKFVEALIEDGNPEAAREMIRVAEETVKKLGDEEVLEELERLLEELSSSSS
B19: il10ra_site1_normal_mot_e1dd4851c59bc1cdde016f988f6856bd_0001_1_000000200_0001_16_31_H_._HHH_b2_06847_0001_0000700040_0000002_0 (protein)
chain: SSSSERELREMLEFQVRALVQTFGLDEEEREELEELAEELAERGVDPREASLELYELARRLSSSS

The other results are listed elsewhere or left out.

In this test the target is il10ra, Q13651. Kind of test: yeast display titration.
B1: the “apparent Kd” value was “inactive: no binding seen”. B2: the “apparent Kd” value is “inactive: no binding seen”.

As for B3, the “apparent Kd” value was “inactive: no binding seen”. For the molecule B4, the “apparent Kd” value is “inactive: no binding seen”.

Regarding B5, the “apparent Kd” value is “inactive: no binding seen”. With B6, the “apparent Kd” value is “inactive: no binding seen”. On to B7, for which the “apparent Kd” value is “inactive: no binding seen”. As to B8, the “apparent Kd” value was “inactive: no binding seen”. Under B9 stands “inactive: no binding seen”; under B10, “inactive: no binding seen”; under B11, “inactive: no binding seen”.

On to B12, for which the “apparent Kd” value was “inactive: no binding seen”.

B13: the “apparent Kd” value is “inactive: no binding seen”. As to B14, the “apparent Kd” value is “inactive: no binding seen”.

For B15, the “apparent Kd” value is “inactive: no binding seen”.

For B16, the “apparent Kd” value is “inactive: no binding seen”. For B17, the “apparent Kd” value is “inactive: no binding seen”. Turning to B18, the “apparent Kd” value is “inactive: no binding seen”. Consider B19, for which the “apparent Kd” value was “inactive: no binding seen”.

For the origin of these results see article PMC10163288.
